# Reference: US20120121506A1 (PHILOGEN S P A, published 2012)
# These are yes or no findings as the source states them, for the method shown. Binding calls can cover weak binding; strength is not graded here.
# Assays:
# [1] = target: tenascin-C in vessels of HL-60 tumours grown in nude mice; experiment: immunohistochemistry, HL-60 tumour sections from nude mice, biotinylated SIP 2 ug/ml
# [2] = target: ED-A isoform of fibronectin in vessels of HL-60 tumours grown in nude mice; experiment: as above
Binder,binding [1],binding [2]
"4A1-F16-SIP (antibody, biotinylated (sites not given)) EVQLLESGGGLVQPGGSLRLSCAASGFTFSRYGMSWVRQAPGKGLEWVSAISGSGGSTYYADSVKGRFTISRDNSKNTLYLQMNSLRAEDTAVYYCAKAHNAFDYWGQGTLVTVSRGGGSGGGSGGSSELTQDPAVSVALGQTVRITCQGDSLRSYYASWYQQKPGQAPVLVIYGKNNRPSGIPDRFSGSSSGNTASLTITGAQAEDEADYYCNSSVYTMPPVVFGGGTKLTVLSGGSGGPRAAPEVYAFATPEWPGSRDKRTLACLIQNFMPEDISVQWLHNEVQLPDARHSTTQPRKTKGSGFFVFSRLEVTRAEWEQKDEFICRAVHEAASPSQTVQRAVSVNPESSRRGGC",binds,–
"F8-SIP (V5L/K18R) (antibody, biotinylated (sites not given), Human monoclonal mini-immunoglobulin (small immunoprotein, SIP); It was used biotinylated at 2 ug/ml on tissue sections; also called F8 (V5L/K18R)) EVQLLESGGGLVQPGGSLRLSCAASGFTFSLFTMSWVRQAPGKGLEWVSAISGSGGSTYYADSVKGRFTISRDNSKNTLYLQMNSLRAEDTAVYYCAKSTHLYLFDYWGQGTLVTVSSGGGGSGGGSGGGGGEIVLTQSPGTLSLSPGERATLSCRASQSVSMPFLAWYQQKPGQAPRLLIYGASSRATGIPDRFSGSGSGTDFTLTISRLEPEDFAVYYCQQMRGRPPTFGQGTKVEIKSGGSGGPRAAPEVYAFATPEWPGSRDKRTLACLIQNFMPEDISVQWLHNEVQLPDARHSTTQPRKTKGSGFFVFSRLEVTRAEWEQKDEFICRAVHEAASPSQTVQRAVSVNPESSRRGGC",–,binds
